Reference: the supplement of paper PMC10849652
Some of the results follow.

Protein sequences, listed by entry. Tags and fused reporters are not part of them. Lines headed by an entry give the natural chain unless they say otherwise; changes in a name come on top.
UniProt P78362, whole entry, looked up: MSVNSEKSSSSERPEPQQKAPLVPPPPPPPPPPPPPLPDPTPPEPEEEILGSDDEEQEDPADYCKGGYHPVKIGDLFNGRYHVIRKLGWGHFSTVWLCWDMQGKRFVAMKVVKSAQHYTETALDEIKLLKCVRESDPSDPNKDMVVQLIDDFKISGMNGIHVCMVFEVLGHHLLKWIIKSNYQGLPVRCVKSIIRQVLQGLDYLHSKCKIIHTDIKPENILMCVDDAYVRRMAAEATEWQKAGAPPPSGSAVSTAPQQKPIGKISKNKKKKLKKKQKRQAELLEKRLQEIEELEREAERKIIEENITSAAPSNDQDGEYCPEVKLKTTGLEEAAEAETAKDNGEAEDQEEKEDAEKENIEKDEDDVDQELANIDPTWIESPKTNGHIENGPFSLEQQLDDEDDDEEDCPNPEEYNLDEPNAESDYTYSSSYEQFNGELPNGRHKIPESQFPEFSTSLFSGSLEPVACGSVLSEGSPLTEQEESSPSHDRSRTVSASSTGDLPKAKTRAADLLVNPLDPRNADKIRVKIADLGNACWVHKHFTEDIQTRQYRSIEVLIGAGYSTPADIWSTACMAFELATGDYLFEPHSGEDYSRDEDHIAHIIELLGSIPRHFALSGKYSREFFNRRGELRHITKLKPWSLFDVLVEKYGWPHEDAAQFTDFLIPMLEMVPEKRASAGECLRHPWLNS
UniProt Q9Y657, whole entry, looked up: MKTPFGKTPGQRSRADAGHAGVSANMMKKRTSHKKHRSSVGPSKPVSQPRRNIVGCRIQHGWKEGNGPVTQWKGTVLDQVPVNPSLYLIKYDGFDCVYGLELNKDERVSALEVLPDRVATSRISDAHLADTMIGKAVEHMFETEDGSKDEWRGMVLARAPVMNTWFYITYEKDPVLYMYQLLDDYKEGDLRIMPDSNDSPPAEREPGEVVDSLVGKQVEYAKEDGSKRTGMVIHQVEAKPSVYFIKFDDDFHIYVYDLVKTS
UniProt P40763, whole entry, looked up: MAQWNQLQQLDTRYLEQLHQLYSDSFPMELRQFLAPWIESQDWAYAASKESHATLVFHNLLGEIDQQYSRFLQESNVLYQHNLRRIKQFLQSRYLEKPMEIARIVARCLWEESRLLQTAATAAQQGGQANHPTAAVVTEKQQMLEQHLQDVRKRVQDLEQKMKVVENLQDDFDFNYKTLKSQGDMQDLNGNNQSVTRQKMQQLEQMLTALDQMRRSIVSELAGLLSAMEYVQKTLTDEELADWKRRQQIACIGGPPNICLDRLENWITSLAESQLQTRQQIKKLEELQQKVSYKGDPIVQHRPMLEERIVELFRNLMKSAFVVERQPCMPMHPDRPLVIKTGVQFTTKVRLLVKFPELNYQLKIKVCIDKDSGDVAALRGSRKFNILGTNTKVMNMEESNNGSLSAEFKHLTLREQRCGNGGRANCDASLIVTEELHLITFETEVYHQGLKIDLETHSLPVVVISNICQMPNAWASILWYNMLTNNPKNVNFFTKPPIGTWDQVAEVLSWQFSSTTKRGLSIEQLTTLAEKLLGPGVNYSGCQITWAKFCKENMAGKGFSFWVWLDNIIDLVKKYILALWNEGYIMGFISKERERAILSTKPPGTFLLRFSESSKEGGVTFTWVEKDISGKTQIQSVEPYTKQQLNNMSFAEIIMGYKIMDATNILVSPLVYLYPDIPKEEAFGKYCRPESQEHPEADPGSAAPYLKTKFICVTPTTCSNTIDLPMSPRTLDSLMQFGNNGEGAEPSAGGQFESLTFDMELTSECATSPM
UniProt Q08945, whole entry, looked up: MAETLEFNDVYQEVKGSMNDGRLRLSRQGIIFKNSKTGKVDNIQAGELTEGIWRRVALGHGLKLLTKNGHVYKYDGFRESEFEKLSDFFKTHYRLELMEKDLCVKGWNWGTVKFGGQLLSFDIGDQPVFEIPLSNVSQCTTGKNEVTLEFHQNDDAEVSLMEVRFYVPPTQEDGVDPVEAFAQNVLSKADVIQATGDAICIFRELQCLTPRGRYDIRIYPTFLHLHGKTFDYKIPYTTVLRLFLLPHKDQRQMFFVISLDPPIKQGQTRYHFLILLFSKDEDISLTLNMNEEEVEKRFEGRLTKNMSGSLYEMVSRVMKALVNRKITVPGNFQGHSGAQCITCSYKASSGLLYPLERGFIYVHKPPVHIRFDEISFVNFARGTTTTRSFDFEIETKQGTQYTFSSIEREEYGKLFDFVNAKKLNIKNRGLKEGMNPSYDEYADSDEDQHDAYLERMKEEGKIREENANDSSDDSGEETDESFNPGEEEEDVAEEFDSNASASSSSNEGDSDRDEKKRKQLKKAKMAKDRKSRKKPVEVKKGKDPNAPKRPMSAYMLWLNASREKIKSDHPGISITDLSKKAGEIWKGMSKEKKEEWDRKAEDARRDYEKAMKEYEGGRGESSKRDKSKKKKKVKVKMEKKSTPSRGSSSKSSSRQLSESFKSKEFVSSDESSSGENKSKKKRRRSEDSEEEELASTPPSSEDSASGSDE
UniProt Q16629: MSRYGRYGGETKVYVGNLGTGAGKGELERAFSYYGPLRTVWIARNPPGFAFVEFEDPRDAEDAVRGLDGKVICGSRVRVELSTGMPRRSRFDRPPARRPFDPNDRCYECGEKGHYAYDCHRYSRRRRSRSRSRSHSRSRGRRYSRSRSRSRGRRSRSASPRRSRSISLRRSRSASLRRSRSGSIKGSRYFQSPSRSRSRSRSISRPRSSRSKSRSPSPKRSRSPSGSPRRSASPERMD
UniProt O15269: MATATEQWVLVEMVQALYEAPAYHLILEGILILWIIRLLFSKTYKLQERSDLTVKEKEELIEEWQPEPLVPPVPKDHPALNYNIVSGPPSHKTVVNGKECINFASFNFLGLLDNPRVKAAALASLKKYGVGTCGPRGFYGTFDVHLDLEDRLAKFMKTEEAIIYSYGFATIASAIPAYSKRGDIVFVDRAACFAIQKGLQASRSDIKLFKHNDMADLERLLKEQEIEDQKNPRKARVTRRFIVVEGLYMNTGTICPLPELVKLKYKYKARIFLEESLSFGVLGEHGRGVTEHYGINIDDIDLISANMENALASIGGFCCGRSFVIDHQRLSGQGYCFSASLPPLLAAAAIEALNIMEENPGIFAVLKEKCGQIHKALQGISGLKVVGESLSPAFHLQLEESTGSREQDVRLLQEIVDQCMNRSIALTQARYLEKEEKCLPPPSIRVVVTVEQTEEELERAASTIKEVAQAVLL
UniProt P08240: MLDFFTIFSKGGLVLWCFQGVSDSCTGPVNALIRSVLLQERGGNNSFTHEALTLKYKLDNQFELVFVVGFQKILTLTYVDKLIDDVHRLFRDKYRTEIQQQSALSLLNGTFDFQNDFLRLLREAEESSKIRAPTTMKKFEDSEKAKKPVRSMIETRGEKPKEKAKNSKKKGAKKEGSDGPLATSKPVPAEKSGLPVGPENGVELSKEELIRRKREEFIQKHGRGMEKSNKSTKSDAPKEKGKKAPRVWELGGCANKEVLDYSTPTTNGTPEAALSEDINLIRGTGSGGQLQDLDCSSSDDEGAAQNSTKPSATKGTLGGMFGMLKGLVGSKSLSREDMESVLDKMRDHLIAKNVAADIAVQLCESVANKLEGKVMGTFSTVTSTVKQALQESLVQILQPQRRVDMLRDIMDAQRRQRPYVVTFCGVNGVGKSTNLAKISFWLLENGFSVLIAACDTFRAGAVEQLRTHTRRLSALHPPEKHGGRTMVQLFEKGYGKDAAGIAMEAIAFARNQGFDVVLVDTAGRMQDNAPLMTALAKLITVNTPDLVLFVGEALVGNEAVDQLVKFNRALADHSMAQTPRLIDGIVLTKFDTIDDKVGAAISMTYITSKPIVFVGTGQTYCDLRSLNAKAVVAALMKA
UniProt Q15005: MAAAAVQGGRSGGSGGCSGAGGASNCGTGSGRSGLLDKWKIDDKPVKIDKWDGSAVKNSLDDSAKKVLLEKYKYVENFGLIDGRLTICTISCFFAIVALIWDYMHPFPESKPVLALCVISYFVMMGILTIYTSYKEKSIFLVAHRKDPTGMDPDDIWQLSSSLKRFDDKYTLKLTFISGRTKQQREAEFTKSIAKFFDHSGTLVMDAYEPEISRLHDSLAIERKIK
UniProt Q9UNL2: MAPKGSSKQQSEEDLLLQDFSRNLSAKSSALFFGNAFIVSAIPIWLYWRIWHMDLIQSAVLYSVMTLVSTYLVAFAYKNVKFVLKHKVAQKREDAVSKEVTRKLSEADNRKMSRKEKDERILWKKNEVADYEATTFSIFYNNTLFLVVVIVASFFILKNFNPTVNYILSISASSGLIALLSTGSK
UniProt Q8TCT7: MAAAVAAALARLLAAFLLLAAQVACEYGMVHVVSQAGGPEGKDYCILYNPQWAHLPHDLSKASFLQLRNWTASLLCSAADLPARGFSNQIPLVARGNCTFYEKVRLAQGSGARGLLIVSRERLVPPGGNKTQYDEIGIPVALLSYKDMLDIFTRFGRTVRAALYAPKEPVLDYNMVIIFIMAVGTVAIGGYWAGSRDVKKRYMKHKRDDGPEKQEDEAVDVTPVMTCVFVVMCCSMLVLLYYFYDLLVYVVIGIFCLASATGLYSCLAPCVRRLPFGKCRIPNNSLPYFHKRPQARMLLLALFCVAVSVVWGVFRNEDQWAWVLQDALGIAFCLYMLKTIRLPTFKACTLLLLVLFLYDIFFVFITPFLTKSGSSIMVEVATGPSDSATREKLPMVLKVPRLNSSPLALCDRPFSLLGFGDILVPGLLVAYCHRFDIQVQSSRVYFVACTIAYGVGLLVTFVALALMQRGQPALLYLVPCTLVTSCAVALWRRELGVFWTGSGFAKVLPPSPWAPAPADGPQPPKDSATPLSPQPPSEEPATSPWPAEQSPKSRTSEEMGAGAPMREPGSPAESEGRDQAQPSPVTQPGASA
UniProt Q13243: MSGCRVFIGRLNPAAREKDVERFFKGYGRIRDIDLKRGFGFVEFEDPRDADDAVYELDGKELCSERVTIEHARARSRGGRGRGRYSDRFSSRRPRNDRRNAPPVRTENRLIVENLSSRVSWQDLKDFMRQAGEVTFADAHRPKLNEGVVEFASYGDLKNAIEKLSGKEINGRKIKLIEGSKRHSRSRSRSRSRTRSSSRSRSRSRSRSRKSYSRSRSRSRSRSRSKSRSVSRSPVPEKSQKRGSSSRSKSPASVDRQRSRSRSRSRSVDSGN
UniProt Q16385, whole entry, looked up: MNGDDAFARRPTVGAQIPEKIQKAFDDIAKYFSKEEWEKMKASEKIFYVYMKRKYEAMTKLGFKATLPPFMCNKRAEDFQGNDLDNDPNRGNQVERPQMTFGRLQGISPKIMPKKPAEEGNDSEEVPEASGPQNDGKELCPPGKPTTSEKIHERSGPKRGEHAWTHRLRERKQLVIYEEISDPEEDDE
UniProt Q9BRL6: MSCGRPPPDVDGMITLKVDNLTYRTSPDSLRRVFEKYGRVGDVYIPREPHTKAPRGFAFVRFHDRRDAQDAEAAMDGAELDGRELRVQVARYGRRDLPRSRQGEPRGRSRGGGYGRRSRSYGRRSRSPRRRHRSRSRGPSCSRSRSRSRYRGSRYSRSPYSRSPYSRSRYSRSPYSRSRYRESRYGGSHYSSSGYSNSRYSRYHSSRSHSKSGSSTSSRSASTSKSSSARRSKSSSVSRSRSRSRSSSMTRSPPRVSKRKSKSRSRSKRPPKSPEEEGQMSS
UniProt O43805: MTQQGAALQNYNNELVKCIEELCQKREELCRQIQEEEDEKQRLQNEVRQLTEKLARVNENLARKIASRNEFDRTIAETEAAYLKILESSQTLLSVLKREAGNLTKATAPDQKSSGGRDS
UniProt Q9C004: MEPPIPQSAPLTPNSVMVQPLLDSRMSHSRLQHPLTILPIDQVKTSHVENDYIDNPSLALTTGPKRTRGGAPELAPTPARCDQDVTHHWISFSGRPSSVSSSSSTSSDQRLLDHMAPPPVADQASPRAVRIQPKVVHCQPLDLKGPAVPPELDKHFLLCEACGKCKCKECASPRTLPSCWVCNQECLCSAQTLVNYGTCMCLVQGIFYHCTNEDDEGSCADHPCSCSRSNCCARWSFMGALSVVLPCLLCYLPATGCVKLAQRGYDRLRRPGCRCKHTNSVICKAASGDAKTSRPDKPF
UniProt Q8WW59: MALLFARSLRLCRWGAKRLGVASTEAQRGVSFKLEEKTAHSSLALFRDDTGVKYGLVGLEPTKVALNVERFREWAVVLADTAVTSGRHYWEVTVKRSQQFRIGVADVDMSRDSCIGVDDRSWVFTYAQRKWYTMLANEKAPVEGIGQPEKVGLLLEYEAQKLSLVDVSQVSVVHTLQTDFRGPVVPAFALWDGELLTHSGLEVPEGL
UniProt Q8NBT2: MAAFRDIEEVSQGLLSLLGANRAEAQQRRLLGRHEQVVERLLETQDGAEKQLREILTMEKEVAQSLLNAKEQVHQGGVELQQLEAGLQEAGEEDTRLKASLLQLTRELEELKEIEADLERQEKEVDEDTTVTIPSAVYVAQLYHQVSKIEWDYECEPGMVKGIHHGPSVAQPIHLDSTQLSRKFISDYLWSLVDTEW
UniProt P30626: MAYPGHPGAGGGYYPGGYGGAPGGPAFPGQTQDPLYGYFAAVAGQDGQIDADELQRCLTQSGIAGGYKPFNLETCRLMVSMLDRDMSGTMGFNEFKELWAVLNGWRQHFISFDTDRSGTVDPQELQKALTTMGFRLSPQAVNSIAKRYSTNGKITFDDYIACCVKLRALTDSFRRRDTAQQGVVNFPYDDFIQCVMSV

Assays:
Test in all cases: log2 fold change, soluble protein after heating vs DMSO (PISA); higher = thermal stabilisation; K562 lysate, 10 uM; active = over 0.2 and 3.5 SD of the protein, either way, in both replicates (recomputed)
[1] = compound: CN1CC[C@H](c2c(O)cc(O)c3c(=O)cc(-c4ccccc4Cl)oc23)[C@H](O)C1 [alvocidib]
Outline: (§1)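 Quantification was by TMTpro 16plex LC-MS/MS with equalised channel sums, applied to the supernatant after 21,000xg for 90 min. Samples were crude K562 extract at 1 mg/mL protein in PBS pH 7.4 with 1 mM MgCl2, treated with 10 μM compound for 30 min, heated for 3 min across 48°C-58°C, pooled and brought to 0.5% NP-40 at 4°C. Values are log-two fold changes in thermal stability relative to solvent controls, from duplicates.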

[2] = compound: CN1CCc2c(c3ccccc3n2Cc2ccc(C(=O)NO)cc2)C1 [Tubastatin A]
Outline: as §1

[3] = compound: CNC(=O)C1=CC=CC=C1NC2=NC(=NC=C2Cl)NC3=C(C=C(C=C3)N4CCOCC4)OC
Outline: as §1

[4] = compound: CNC(=O)c1ccc(Nc2ncc(C(F)(F)F)c(NCc3nccnc3N(C)S(C)(=O)=O)n2)cc1 [defactinib]
Outline: as §1

[5] = compound: CNc1nc(-c2ccc3c(N)n[nH]c3c2)cc(N2C[C@@H](C(=O)NC3CCCCC3)CC[C@H]2C)n1
Outline: as §1

[6] = compound: COC(=O)N[C@@H](C)CNc1nccc(-c2cn(C(C)C)nc2-c2cc(Cl)cc(NS(C)(=O)=O)c2F)n1 [encorafenib]
Outline: as §1

[7] = compound: COC(=O)[C@H](CCSC)NC(=O)C1=C(C=C(C=C1)NC[C@H](CS)N)C2=CC=CC=C2
Outline: as §1

[8] = compound: COc1cc(Nc2ncc3c(n2)-c2ccc(Cl)cc2C(c2c(F)cccc2OC)=NC3)ccc1C(=O)O [alisertib]
Outline: as §1

[9] = compound: COc1cc2nc(-c3cc(F)ccc3O)nc(N[C@@H]3CNC[C@H]3C(C)(C)O)c2cc1OC
Outline: as §1

[10] = compound: COc1cc2ncnc(Nc3ccc(F)c(Cl)c3)c2cc1OCCCN1CCOCC1 [gefitinib]
Outline: as §1

Measured: log2 fold change

SRPK2 isoform 2 (UniProt P78362)
inactive: [1] 0.132 | [2] -0.118 | [3] 0.132 | [4] 0.087 | [5] 0.029 | [6] 0.024 | [7] -0.007 | [8] 0.01 | [9] 0.015 | [10] 0.02

SPIN1 (UniProt Q9Y657)
inactive: [1] -0.072 | [2] 0.018 | [3] -0.022 | [4] 0.048 | [5] 0.021 | [6] 0.04 | [7] 0.022 | [8] 0.144 | [9] 0.092 | [10] -0.082

STAT3 isoform 3 (UniProt P40763)
inactive: [1] 0.032 | [2] 0 | [3] -0.237 | [4] -0.02 | [5] 0.044 | [6] 0.044 | [7] 0.11 | [8] 0.039 | [9] 0.068 | [10] -0.096

SSRP1 (UniProt Q08945)
inactive: [1] 0.011 | [2] -0.023 | [3] 0.009 | [4] -0.004 | [5] -0.014 | [6] -0.002 | [7] -0.001 | [8] 0.018 | [9] -0.019 | [10] -0.015

SRSF7 (UniProt Q16629)
inactive: [1] -0.2 | [2] -0.005 | [3] -0.057 | [4] -0.06 | [5] 0.051 | [6] 0.032 | [7] 0.049 | [8] 0.006 | [9] 0.038 | [10] 0.067

STARD7 (UniProt Q9NQZ5)
inactive: [1] -0.019 | [2] 0.161 | [3] 0.052 | [4] 0.001 | [5] 0.061 | [6] -0.021 | [7] -0.069 | [8] -0.024 | [9] -0.026 | [10] -0.016

SPTBN2 (UniProt O15020)
inactive: [1] 0.019 | [2] -0.054 | [3] -0.01 | [4] -0.004 | [5] -0.041 | [6] 0.003 | [7] 0.036 | [8] -0.003 | [9] 0.023 | [10] -0.024

SRCAP (UniProt Q6ZRS2)
inactive: [1] -0.018 | [2] -0.022 | [3] -0.011 | [4] 0 | [5] -0.103 | [6] 0.017 | [7] 0.101 | [8] -0.026 | [9] 0.009 | [10] -0.02

SPTLC1 (UniProt O15269)
inactive: [1] -0.034 | [2] -0.02 | [3] -0.01 | [4] 0.003 | [5] 0 | [6] 0.033 | [7] -0.048 | [8] 0.029 | [9] 0.026 | [10] -0.039

SRPRA (UniProt P08240)
inactive: [1] 0.015 | [2] -0.007 | [3] -0.014 | [4] 0.022 | [5] -0.045 | [6] 0.001 | [7] 0.014 | [8] 0.011 | [9] 0.019 | [10] -0.014

SPCS2 (UniProt Q15005)
inactive: [1] 0.048 | [2] -0.009 | [3] 0.012 | [4] 0.038 | [5] -0.075 | [6] -0.015 | [7] -0.006 | [8] -0.013 | [9] 0.017 | [10] 0.03

SSR3 isoform 2 (UniProt Q9UNL2)
inactive: [1] 0.031 | [2] -0.006 | [3] -0.05 | [4] 0.045 | [5] 0.033 | [6] -0.035 | [7] -0.042 | [8] -0.061 | [9] -0.045 | [10] 0.007

Pulled one by one from above (2):
SRCAP (UniProt Q6ZRS2)
inactive: [1] -0.018 | [2] -0.022 | [3] -0.011 | [4] 0 | [5] -0.103 | [6] 0.017 | [7] 0.101 | [8] -0.026 | [9] 0.009 | [10] -0.02

SPCS2 (UniProt Q15005)
inactive: [1] 0.048 | [2] -0.009 | [3] 0.012 | [4] 0.038 | [5] -0.075 | [6] -0.015 | [7] -0.006 | [8] -0.013 | [9] 0.017 | [10] 0.03

The listing continues:

SS18 (UniProt Q15532)
inactive: [1] 0.076 | [2] 0.013 | [3] 0.014 | [4] 0.198 | [5] 0.086 | [6] 0.04 | [7] -0.215 | [8] 0.082 | [9] -0.022 | [10] -0.243

SRRM1 (UniProt Q8IYB3)
inactive: [1] -0.019 | [2] 0.02 | [3] -0.001 | [4] -0.011 | [5] -0.006 | [6] 0.033 | [7] -0.06 | [8] 0.016 | [9] -0.006 | [10] -0.031

SPPL2B (UniProt Q8TCT7)
inactive: [1] -0.041 | [2] -0.05 | [3] 0.067 | [4] -0.006 | [5] -0.053 | [6] 0.016 | [7] -0.061 | [8] 0.019 | [9] -0.008 | [10] -0.028

SRSF5 (UniProt Q13243)
inactive: [1] -0.022 | [2] 0.019 | [3] 0.018 | [4] -0.038 | [5] 0.002 | [6] -0.009 | [7] -0.004 | [8] 0.009 | [9] -0.005 | [10] 0.028

STC2 (UniProt O76061)
inactive: [1] 0.081 | [2] -0.014 | [3] -0.094 | [4] 0.177 | [5] -0.056 | [6] -0.142 | [7] 0.055 | [8] 0.069 | [9] 0.106 | [10] 0.044

STIL isoform 2 (UniProt Q15468)
inactive: [1] 0.021 | [2] -0.164 | [3] 0.011 | [4] 0.051 | [5] 0.001 | [6] 0.083 | [7] -0.012 | [8] 0.09 | [9] 0.086 | [10] 0.033

SSX2 (UniProt Q16385)
inactive: [1] -0.02 | [2] -0.064 | [3] 0.07 | [4] -0.014 | [5] -0.003 | [6] 0.01 | [7] 0 | [8] 0.005 | [9] -0.007 | [10] -0.017

SRSF8 (UniProt Q9BRL6)
inactive: [1] -0.025 | [2] 0.04 | [3] -0.008 | [4] -0.011 | [5] -0.017 | [6] -0.032 | [7] 0.009 | [8] -0.001 | [9] 0.013 | [10] 0.078

SSNA1 (UniProt O43805)
inactive: [1] 0.016 | [2] 0.038 | [3] 0.043 | [4] -0.036 | [5] 0.109 | [6] 0.023 | [7] -0.115 | [8] 0.027 | [9] -0.014 | [10] 0.013

SPRY4 (UniProt Q9C004)
inactive: [1] -0.027 | [2] 0.075 | [3] 0.046 | [4] 0.048 | [5] 0.033 | [6] 0.031 | [7] -0.09 | [8] -0.094 | [9] 0.024 | [10] -0.041

SPR (UniProt P35270)
inactive: [1] 0.164 | [2] -0.1 | [3] 0.071 | [4] 0.019 | [5] 0.01 | [6] -0.097 | [7] 0.22 | [8] 0.163 | [9] -0.017 | [10] -0.013

SPRYD4 (UniProt Q8WW59)
inactive: [1] -0.016 | [2] 0.047 | [3] 0.005 | [4] -0.01 | [5] 0.011 | [6] 0.003 | [7] 0.01 | [8] 0.017 | [9] 0.008 | [10] -0.034

SPC24 (UniProt Q8NBT2)
inactive: [1] 0.033 | [2] 0.023 | [3] 0.011 | [4] 0.016 | [5] 0.004 | [6] 0.016 | [7] -0.025 | [8] -0.04 | [9] 0.017 | [10] 0.01

STAT1 (UniProt P42224)
inactive: [1] -0.021 | [2] -0.074 | [3] 0.004 | [4] 0.014 | [5] -0.023 | [6] 0.012 | [7] 0.016 | [8] 0.022 | [9] -0.012 | [10] -0.024

SPRYD7 (UniProt Q5W111)
inactive: [1] 0.025 | [2] 0.092 | [3] -0.024 | [4] -0.003 | [5] -0.048 | [6] -0.038 | [7] -0.065 | [8] -0.128 | [9] -0.021 | [10] 0.014

SRI (UniProt P30626)
inactive: [1] 0.096 | [2] 0.066 | [3] 0.057 | [4] 0.128 | [5] 0.053 | [6] 0.029 | [7] -0.011 | [8] 0.064 | [9] -0.035 | [10] -0.191
